According to US12661347B2 (Dr. Falk Pharma GmbH, priority 2020, dated 2026):
The name of at least one read-out is uncertain.

Assay: Pharmacokinetic after oral administration of the systemic formulation in healthy volunteers (plasma, HPLC-MS/MS)
Format: in vivo
Details: human; in comparison to the previous animal studies
Procedure: The pharmacokinetic of (S,E)-methyl-7-(1-(2-(2-ethylbutylamino)-2-oxoethyl)-2-oxo-1,2-dihydro-pyridin-3-ylamino)-6-(1-methyl-1H-imidazole-5-carboxamido)-7-oxohept-2-enoate (compound of formula (I)) was investigated in healthy volunteers. Cohorts of 18 subjects each were treated with an oral daily dose of 10, 20, 50 and 100 mg compound of formula (I), respectively over a time period of 7 days.
The determination of said compound in blood plasma was performed by means of a previously validated HPLC-MS/MS method.

With `CCC(CC)CNC(=O)Cn1cccc(NC(=O)[C@H](CC/C=C/C(=O)OC)NC(=O)c2cncn2C)c1=O` [compound of formula (I), (S,E)-methyl-7-(1-(2-(2-ethylbutylamino)-2-oxoethyl)-2-oxo-1,2-dihydro-pyridin-3-ylamino)-6-(1-methyl-1H-imidazole-5-carboxamido)-7-oxohept-2-enoate] the relative bioavailability was “high relative bioavailability”.
